Test results published in patent US20250186373A1, “TARGETING AN EUKARYOTIC INITIATION FACTOR 2 ALPHA KINASE TO REGULATE TRANSLATION UNDER STRESS” (The Johns Hopkins University, priority 2022, published 2025).

How the values were obtained:
MARK2 [1] = target: T1, MARK2 (Mus musculus, UniProt Q05512); assay: cell-based MARK2 kinase activity assay based on eIF2α phosphorylation (immunoblot of MEFs); settings: for activity in inhibiting the phosphorylation of eIF2α: comparison of seven drugs, FIG. 21E
T1 construct: endogenous in cells; host or cells: mouse embryonic fibroblasts (MEFs)
T1 sequence (Q05512 1-776): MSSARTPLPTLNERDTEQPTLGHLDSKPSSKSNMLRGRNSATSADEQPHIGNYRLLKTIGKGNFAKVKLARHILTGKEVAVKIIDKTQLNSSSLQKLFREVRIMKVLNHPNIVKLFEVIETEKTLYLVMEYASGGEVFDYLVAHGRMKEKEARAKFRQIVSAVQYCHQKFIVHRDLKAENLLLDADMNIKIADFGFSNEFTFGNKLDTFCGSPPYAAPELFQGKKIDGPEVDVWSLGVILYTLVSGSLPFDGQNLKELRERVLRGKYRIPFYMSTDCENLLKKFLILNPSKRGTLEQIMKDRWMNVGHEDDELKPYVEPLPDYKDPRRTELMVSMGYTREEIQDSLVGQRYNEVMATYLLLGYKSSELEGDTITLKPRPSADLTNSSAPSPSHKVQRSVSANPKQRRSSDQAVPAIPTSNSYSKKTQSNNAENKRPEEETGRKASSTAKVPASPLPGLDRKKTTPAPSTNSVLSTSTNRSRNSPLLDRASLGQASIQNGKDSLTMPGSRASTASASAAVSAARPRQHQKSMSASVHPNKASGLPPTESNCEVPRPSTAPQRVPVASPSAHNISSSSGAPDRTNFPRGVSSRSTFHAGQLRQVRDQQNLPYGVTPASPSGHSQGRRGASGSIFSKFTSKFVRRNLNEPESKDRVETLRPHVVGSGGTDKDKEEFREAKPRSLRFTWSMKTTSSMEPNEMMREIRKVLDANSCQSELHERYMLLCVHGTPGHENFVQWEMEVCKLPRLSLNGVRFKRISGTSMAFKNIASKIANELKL

MARK2 [2] = settings: previous report; cited from earlier work

O=C1NC(=O)C(c2ccccc2[N+](=O)[O-])=C1Nc1ccc(O)c(Cl)c1 [SB415286]
phosphorylation of eIF2α-51S (MARK2 [1]; MEFs, 20 μM, 1 hr, versus DMSO control, FIG. 21A): substantially reduces the phosphorylation of eIF2α-^51S | increase in the levels of phosphorylated eIF2α-51S in response to MG132 (MARK2 [1]; cell co-treatment with MG132): substantially diminished the increase | activity in inhibiting the phosphorylation of eIF2α (MARK2 [1]): high activity for inhibiting eIF2α phosphorylation | activity in inhibiting the phosphorylation of eIF2α (MARK2 [1]; listed as SB-415286): high activity | MARK kinase function (MARK2 [2]): inhibited MARK kinase function
